From patent US20210180067

Chains of the proteins cited; added tags and fusions are not shown. A line that says so, or that is headed by a name, gives the form on record, which may keep a tag or linker.
CD25-IL2 complex on primary human CD4+CD25high Treg cells treated with IL2 (Homo sapiens), one chain, as listed by the source: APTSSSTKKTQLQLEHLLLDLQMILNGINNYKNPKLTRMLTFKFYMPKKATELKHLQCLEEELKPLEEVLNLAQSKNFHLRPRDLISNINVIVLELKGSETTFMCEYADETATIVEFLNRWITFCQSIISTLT

Columns and labels:
[1] = tested on: CD25-IL2 complex on primary human CD4+CD25high Treg cells treated with IL2 (Homo sapiens); test: binding assay; conditions: 2'-F C and U, AIM-V, 37 C, cell binding assay, protein on the cell surface
[2] = target: T1, CD25 (IL2RA) overexpressed on HEK293 (HEK-CD25) (Homo sapiens) (UniProt P01589); test: binding assay; conditions: 2'-F C and U, cell binding RT-qPCR, 37 C, protein on the cell surface
T1 sequence (looked up, limits assumed): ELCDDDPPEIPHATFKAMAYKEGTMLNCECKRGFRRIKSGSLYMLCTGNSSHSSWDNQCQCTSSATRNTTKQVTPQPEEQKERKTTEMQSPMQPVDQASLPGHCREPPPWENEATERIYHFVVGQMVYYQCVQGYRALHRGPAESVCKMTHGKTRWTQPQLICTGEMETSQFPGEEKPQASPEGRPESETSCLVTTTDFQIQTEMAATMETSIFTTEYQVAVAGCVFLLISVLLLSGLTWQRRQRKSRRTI

[3] = tested on: CD25 (IL2RA)-IL2 complex (Homo sapiens); test: pull-down; conditions: 2'-F C and U, binding reduced vs unoccupied CD25, 2 mM CaCl2, 37 C, RT-qPCR, purified recombinant protein, protein details: CD25 His-tagged, Thermo Fisher
[4] = 100 nM RNA, CD25 binders stated higher than on parental HEK293
[5] = lower on IL2-treated than untreated Tregs
[6] = higher on IL2-treated than untreated Tregs

GGGAGGACGAUGCGGAUUCUGGUUACUGGCCGCCCCAGACGACUCGCCCGA [Tr-11]
binding result ([1]; equal on IL2-treated and untreated Tregs): binds | binding result [2, 4]: binds

GGGAGGACGAUGCGGCACACCGAAAUGUCCCGACUCAGACGACUCGCCCGA [C-248]
binding result ([2]; negative control, significantly lower than Tr-1): no binding

GGGAGGACGAUGCGGCGUUUCCUCUGGUUCGUCCCCAGACGACUCGCCCGA [Tr-6]
binding result [1, 5]: binds more weakly | binding result [2, 4]: binds | binding result [3]: binds more weakly

GGGAGGACGAUGCGGGCCGUUGUUGUGUGCCGCCCCAGACGACUCGCCCGA [Tr-8]
binding result [1, 5]: binds more weakly | binding result [2, 4]: binds | binding result ([3]; inverse correlation with IL2 occupancy (R2=0.565)): binds more weakly

GGGAGGACGAUGCGGUCCUGUCGUCUGUUCGUCCCCAGACGACUCGCCCGA [Tr-1]
binding result [1, 6]: binds | binding result ([2]; 100 nM RNA, significantly higher than on parental HEK293): binds

GGGAGGACGAUGCGGUGAGUCGUUCCCUUCGUCCCCAGACGACUCGCCCGA [Tr-7]
binding result [1, 6]: binds | binding result [2, 4]: binds

For some of these results: The comparison behind a weaker result is the experiment's own reference, which may not be listed here. For some of these results: Where cells or extracts were used, other partners may take part. For some of these results: No signal at the amounts used counts as a negative. For some of these results: Protein sequences can lack the tags named with them.
